From PubChem BioAssay AID651593 (National Center for Advancing Translational Sciences (NCATS), 2012)
The campaign covered roughly 1,100 compounds. About 860 (78%) were called active. So high a share suggests a set chosen from earlier hits. Inconclusive means that the source gave no clear call. Such entries were picked first, then a sample of the others. The call rests on the fitted dose curve; in most records, active means well fitted activation curve with a large enough effect; inconclusive means small, poorly fitted or top-dose-only effect; inactive means flat fitted curve, though single readings scatter. Potencies beside an inconclusive call are fits to weak or partial responses and may not hold up.

Experiment: qHTS of Nrf2 Activators: Hit Validation in Primary Assay; further: nearly all actives have a fitted effect of over 70% in size
Conditions: Nrf2/ARE reporter cell assay; Potency: activation; series mostly up to 46.1 µM
Source text: Many diseases have some form of oxidative stress injury and ties to inflammation, causing a host of problems for the patient. The antioxidant response element (ARE) plays an important role in alleviating the harmful effects of oxidative stress. The antioxidant response element (ARE) is a transcriptional regulatory element involved in the activation of genes coding for a number of antioxidant proteins and detoxifying enzymes. These enzymes work in concert to protect tissues from oxidative insults and chemical toxicities in human hepatocytes and immune cells. The protective effects of ARE activation are primarily triggered through Nrf2 (NF-E2-related factor) binding to and activating AREs. It is known that Nrf2 controls the production of over 250 antioxidant and detoxification proteins (Hu et al., 2006), thereby protecting tissues by increasing cellular antioxidant content and suppressing inflammatory signaling pathways. The transcription factor Nrf2 is a central link between oxidative chemicals, such as phenolic antioxidants and electrophilic compounds, and the activation of ARE. Nrf2 levels are constitutively low as a consequence of its interaction with Keap1, which targets its degradation (Zipper and Mulcahy, 2002). Electrophiles react with key cysteine residues in Keap1, releasing Nrf2 and allowing its translocation to the nucleus. Once within the nucleus, Nrf2 complexes with coactivators such as p300, and binds to the AREs to induce gene transcription of cytoprotective enzymes, resulting in the prevention of toxicity. Activation of Nrf2 protects tissues by increasing cellular antioxidant content and suppressing inflammatory signaling pathways. Identifying novel and potent Nrf2 activators by using the AREc32 cell line to detect ARE activation by small molecules will lead to the identification and development of probes to study protective pathways in multiple tissues. These specific probes are essential to study the ARE pathway, and eventually to determine whether this pathway does activate genes that could protect against a host of diseases, including cardiovascular diseases, obesity, diabetes, Alzheimer's, and Parkinson's disease.
This project's aim is to identify novel and potent Nrf2 activators by using the AREc32 cell line to detect ARE activation by small molecules, which will lead to the identification and development of probes to study the ARE pathway.
NIH Chemical Genomics Center [NCGC]
NIH Molecular Libraries Probe Centers Network [MLPCN]
Assay Submitter (PI): Curtis Klaassen, University of Kansas Medical Center
Quantification of ARE activation after compound treatment was measured by the Steady-Glo Luciferase (R) assay system (Promega) in AREc32_fluc stable cells. The Steady-Glo reagent acts by cell lysis and generation of a luminescent signal proportional to ARE activation, through the luciferase reporter in the AREc32 stable cell line. AREc32_fluc cells were harvested from T225 flask and resuspended in phenol red free OPTI-MEM medium with 5% FBS. Then 5 microL of 200,000 cells/mL resuspended cells were dispensed into each well of white, solid bottom, 1536-well tissue culture-treated plates using a Multidrop Combi dispenser. After overnight culture at 37 degrees C with 5% CO2, a total of 23 nL of compounds at 5 selected concentrations from the MLSMR/Sytravon or positive control (40 uM stock of CDDO-IM and 2 mM of tBHQ) in DMSO was transferred to each well of the assay plate using a pintool (Kalypsys, San Diego, CA), and the plates were further incubated at 37 degrees C with 5% CO2 for 24 hours. After that, 2 microL of Steady Glo luminescent substrate mix (Promega) was added to each well. The plate was incubated at room temperature for 30 minutes. The plates were measured on a ViewLux plate reader (PerkinElmer) with clear filter.
Potency means the concentration at half of the fitted maximal effect.

Compound | Potency
CCOC(=O)c1c(-c2ccco2)csc1NC(=O)CSc1nnc(N)s1 | inconclusive: 1.16 µM [activator, full curve]
COC(CN(C(=O)CCl)C(C(=O)NC1CCCCC1)c1ccccc1C)OC (centres undefined) | inconclusive: 3.66 µM [activator, single point]
Cc1ccc2nc(/C(C#N)=C\c3ccc([N+](=O)[O-])o3)[nH]c2c1 | inconclusive: 4.11 µM [activator, single point]
O=C(c1ccccc1)[C@@H]1[C@@H]2C(=O)N(c3ccc(F)cc3)C(=O)[C@@H]2C2CCCN21 (some centres undefined) | inconclusive: 18.4 µM [activator, single point]
CCN1CCN(c2sc(S(C)(=O)=O)nc2S(=O)(=O)c2ccc(Cl)cc2)CC1 | active: 14.6 µM
Cn1nnnc1Sc1ncnc2scc(-c3cccc4ccccc34)c12 | inconclusive: 3.66 µM [activator, single point]
Cc1cc(NCc2ccco2)n2c(nc3ccccc32)c1C#N | inconclusive: 8.2 µM [activator, partial curve]
COc1ccccc1-c1cc(C(F)(F)F)nc(S(=O)(=O)CCCC(=O)NCc2ccc(F)cc2)n1 | inconclusive: 4.11 µM [activator, single point]
Cc1ccc(Sc2cnn(-c3ccccc3)c(=O)c2Cl)cc1 | inactive
COc1ccc(Nc2nc(C)nc3sc4c(c23)CCC4)cc1O | inconclusive: 4.11 µM [activator, full curve]
Cc1ccc(Nc2nc(C(N)=O)c(NC(=O)c3ccccc3Br)s2)cc1 | inconclusive: 8.2 µM [activator, partial curve]
O=C(Nc1c(Br)cc2c(c1Br)Cc1ccccc1-2)C(F)(F)F | inconclusive: 0.82 µM [activator, full curve]
O=C(/C=C/Nc1ccc(F)cc1)c1cccs1 | active: 6.51 µM
Cc1cc(Br)cn2c(Cc3ccccc3)c(-c3ccco3)nc12 | active: 16.4 µM
CC(/C=N/n1c(-c2ccc(Cl)cc2)n[nH]c1=S)=C\c1ccco1 | inconclusive: 6.51 µM [activator, partial curve]
Cc1csc(NC(=O)Nc2ccccc2[N+](=O)[O-])n1 | inconclusive: 20.6 µM [activator, single point]
NC(=O)c1cc2c3ccccc3ccn2c1-c1ccccc1 | inconclusive: 18.4 µM [activator, single point]
COc1ccc(Cl)cc1C(=O)NC(=S)Nc1nc(C)cc(C)n1 | inactive
Cc1ccc2cccnc2c1NC(=S)NC(=O)c1ccccc1 | inconclusive: 4.11 µM [activator, full curve]
